Experimental data from patent US11439626B2 (Icahn School of Medicine at Mount Sinai, priority 2019, dated 2022).
Where two headings read alike, the source gives them in different places.

Columns and labels:
[1] = Compartmental fit of IV data in PKPlus (pharmacokinetic parameters of the absorption model); conditions: human, in vivo, 50 mg
[2] = reported basic pKa; cited from earlier work
[3] = cited from earlier work; for decrease in AUC with food / decrease in Cmax with food: concomitant intake of food / taken with a meal
[4] = cited from earlier work
[5] = 100 mg dose, cited from earlier work
clinical = conditions: human, in vivo, 50 mg

Nc1nc2ccc(OC(F)(F)F)cc2s1 [riluzole, 2-Amino-6-(trifluoromethoxy)benzothiazole]
K12 [1]: 4.56 h⁻¹
K13 [1]: 0.56 h⁻¹
K21 [1]: 1.9 h⁻¹
K31 [1]: 0.14 h⁻¹
pKa [2]: 3.8
decrease in AUC with food [3]: around 20%
decrease in Cmax with food [3]: approximately 45%
decrease in AUC with food ([3]; listed as Riluzole): 20%
decrease in Cmax with food ([3]; listed as Riluzole): 45%
dose proportionality of PK ([3]; dose range of 25 to 100 mg every 12 hours): dose proportional
dose metabolized ([3]; following oral administration): at least 88%
increase in AUC vs normal hepatic function ([3]; mild hepatic impairment): 1.7 fold
increase in AUC vs normal hepatic function ([3]; moderate hepatic impairment): 3 fold
First Pass Extraction, calculated (CL/blood to plasma ratio/liver blood flow): to ~42%, closely matching assumed
First Pass Extraction (assumed value based on bioavailability of 60%): 40%
Albumin covariate on CL/F ([4]; population estimate (THETA)): −1.93
Bilirubin covariate on CL/F ([4]; population estimate (THETA)): 0.888
Smoking covariate on CL/F ([4]; population estimate (THETA)): 0.363
higher clearance compared to non-smokers ([4]; smokers): 36%
CL/F Inter-occasion variability ([4]; variability parameter (ETA)): 0.056
CL/F Inter-subject variability ([4]; variability parameter (ETA)): 0.164
Covariance between CL/F and V/F ([4]; variability parameter (ETA)): 0.89
AUC (0-inf) ([5]; Fasted (observed)): 1269 ng·h/mL
Cmax ([5]; Fasted (observed)): 387 ng/mL
Tmax ([5]; Fasted (observed)): 0.8 h
AUC (0-inf) ([5]; Fed (observed)): 1047 ng·h/mL
Cmax ([5]; Fed (observed)): 216 ng/mL
Tmax ([5]; Fed (observed)): 2 h
clearance (clinical): 10.7 mL/min/kg
